Here are results for 68 sequences from PubChem BioAssay AID1508600 (Functional Genomics Laboratory (NCATS/FGL), 2020).

Out of some 53,000 sequences screened, about 3,700 (7%) were called active.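 How the source made its calls: active means gene knockdowns whose robust z-score for IL-1 alpha signal is at least 2 or at most -2, so actives lie on both sides; inactive means the rest.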 The list shows a part of the results.

The assay can be described thus: Components of the Cytosolic LPS Sensing Pathway: Gene Identification via Genome-wide siRNA Screen.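 Further: robust z of the log signal after scaling to non-targeting control siRNA wells of the plate.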 To be noted: RAW264.7 macrophages, IL-1a HTRF, actives lie on both sides, screened at 100 nM (by protocol), cells primed 5 h with Pam3CSK4 first. The essentials: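 RAW264.7 mouse macrophages reverse-transfected with single siRNAs (100 nM final) for 48h, primed with Pam3CSK4 for 5 hours, then transfected with LipidA for 24 hour. Supernatant IL-1a read by HTRF; values normalized to negative-control median, log-transformed robust z-scores.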
For GCUGCCUCUCACCAAGUAUTT against Creb3l3, the z-score was inactive: -1.43. Consider GGCUCUGGCAGAAAUGGAUTT against Pex26, for which the z-score is inactive: -0.0204. With GGAAGAAGAAAGUGUUAAATT against Ythdf2, the z-score was inactive: -0.337. As for GGAGGUGUUCAAAGACAACTT against Traf5, the z-score was inactive: 0.553. The same measure for GGAUGAUCAAGCAGAGUUUTT against Dctn2: inactive: 0.405; for GGACGCAAGUACAAAUUUATT against Tnxb: inactive: 1.13; for CGUACUAUAUCAAAGAACATT against Ro60: inactive: 0.889. In the case of GCACUUUAAGAUCAACCGGTT against Bcar3, the z-score is inactive: 0.521. For the sequence GGAUGCUGAUGGAUUCUCUTT against Caskin2, the z-score was inactive: -0.73. In the case of GCAUUCAGGACCUGUGGCUTT against Olfr890, the z-score was active: -2.33.

For GGGAAUCUAUUGAUGGGAUTT against Sardh, the z-score was inactive: -0.635. On to CCUCUCACCUCAAACGGAUTT against Btnl2, for which the z-score is inactive: 0.89. The same measure for GGAACAGGUUCAUUCAUUGTT against Nup160: inactive: -0.99; for GGUGGUUGUCAUGACAGUCTT against Tcerg1l: inactive: -1.69. In the case of GGAUUUCCAGGUUAUUUUCTT against Csn2, the z-score was inactive: -0.423.

Consider GGCUUAUGAGAACUUGGUGTT against Amot, for which the z-score was inactive: -0.896. As to GGAGGACUAUAACUAAGAGTT against Ifitm5, the z-score was inactive: 0.342. GGAAAUAAAGUGAAUGAGGTT against Gtpbp4: the z-score was inactive: -1.22.

Take “GCCCACGUCCUGGUUUAAUTT against 4632404H12Rik”: the z-score was inactive: 0.482. In the case of GCAAAGUCUAAACUUAGUCTT against Fchsd2, the z-score was inactive: 0.441. GCGCAAAUCUCUCUGUUCUTT against Krt35: the z-score is inactive: 1.23.

Take GGCCUCAGAAAAGGAUCGATT against Olfr1500: the z-score was inactive: 0.163.

With GGUGGAAAGAUUAUCUUCATT against Dmc1, the z-score is inactive: -0.63.

As to GGAGGAGUGAGUCCUGAGATT against Ifna13, the z-score is inactive: -0.0708. On to CCUAGUGGCUAUACAAAUATT against Rgn, for which the z-score was inactive: 0.234. As to GGUUCAGAAUUUAACCUUATT against Phc3, the z-score was active: 3. For the sequence GGAAAGAAACUUUACUGAGTT against Olfr1437, the z-score is inactive: 0.0613. Consider GGUCUCACUGCUAAUAAAGTT against Cutal, for which the z-score is inactive: 0.637.

Turning to CCUUAGCUAGAGAAAGUUATT against Gtpbp10, the z-score was inactive: -1.06. Next, GGAAUGUGAGCUCAGAUGGTT against Arvcf: inactive: -0.262; GCUGAUAACCUGAUCAACGTT against Nars: inactive: 0.0406. GCUGAGGUAUUCAUUAUAGTT against Prss45: the z-score was inactive: 1.01.

As to GGCACCAAGCUCGAUGAUGTT against Sh3gl2, the z-score was inactive: -1.41. As for GGAGAAACUUUUGUCUUCCTT against Slc44a4, the z-score is inactive: -1.04.

For GGCUUUCUUUGACUGUCUCTT against Rdh16, the z-score was inactive: -1.17.

Consider GCCCGAGACCAUGGUUUGUTT against Zfyve21, for which the z-score was inactive: 1.68.

Regarding GGCCUACCAUUUCUUUAUATT against Wdr35, the z-score was inactive: 0.773. Take GGGAUGUGAGGGAAUUAACTT against B4galt3: the z-score was inactive: -1.03. Regarding GGCUACGUGUCAAUAGACATT against Cyth2, the z-score was inactive: -1.52. On to GGUACAUCAGCAACUUCGATT against Dus1l, for which the z-score is inactive: -0.482.

As to GGAUACAGGAGGAAGAAAATT against Alpk3, the z-score was inactive: -0.371. Take GGUGCCAACAAUACUAAACTT against Mycbp2: the z-score is inactive: 1.9.

As to UGAUAUCGGAACAGAGAUGTT against Tbx15, the z-score was inactive: -0.467. Turning to GGUCCCAGCAUGUUUACGUTT against Slc2a12, the z-score is active: 3.04. Consider GGUAAAGCCUUUCAGGAAGTT against Tmem80, for which the z-score is inactive: -0.946. As for GGGUGAAGGUGAAUAUUUATT against Esm1, the z-score is inactive: -1.12. The same measure for GCUAGGUACUGGGUUUUGCTT against Adora2b: inactive: 1.38. Next, GGUGAAGUUAAAAUGAACUTT against Cul2: inactive: 1.33. In the case of GGCGAUCCACAGGAACUCUTT against Tiam1, the z-score is inactive: -1.23. For GGAUUUAGCUAAGAGAGGGTT against Zmat3, the z-score was inactive: -0.125.

Turning to GGUCUAUCCUACAGCUGAGTT against Prl8a9, the z-score is inactive: 0.785. Take GGCGACGAGUUUGAUGACUTT against Eid1: the z-score was inactive: -1.98. The same measure for GGAGACCUGAAUUUUUCAGTT against Tab2: inactive: 0.469; for GGAUUAAAUGGUGGUGGAGTT against Dnajb6: inactive: -1.1. In the case of GGAGCGAUACCACAGUUUATT against Rab5b, the z-score is inactive: 0.4. Next, GGAAGAGAAUAACUCAUCATT against Dmac2l: inactive: 0.0977.

For GAUGAGAGACAAAUUCCCATT against Il11, the z-score is inactive: -0.628. Next, GCCCUGAGGAAGGUACUAATT against Olfr479: inactive: -0.369. As for GGCCAAGAAGACAAGAAAATT against Ddx54, the z-score was inactive: 0.502.

Turning to GGAUCUGCCUGAUCAAAAGTT against Ivl, the z-score is inactive: -0.497.

Consider GGGUCAUGAAGUGAUGGUUTT against Ugt2b34, for which the z-score is inactive: -0.394. Turning to GGAAAGCUGGUGAUGCUCGTT against Rasal3, the z-score was inactive: -0.133. The same measure for GCCUAUAACUUCAAGUAUCTT against Gpn1: inactive: -1.06; for GGAUUACAGGCAUUUGGUUTT against Hmgn1: active: 3.01; for GGUCCCAAGUCCCUAAGAUTT against Ankrd33: inactive: 0.711. As for GGUGGGCCUUUGUCUCAACTT against Ttll3, the z-score was inactive: -0.197. On to GGAUUUCCUAGUAUCUAUGTT against Sptb, for which the z-score is inactive: 0.564.

Take GGAGAUCGACGAAUACAUCTT against Reep2: the z-score is inactive: 0.446.
